Laboratory results reported in PubChem BioAssay AID743255 (National Center for Advancing Translational Sciences (NCATS), 2014).
Screen size: about 390,000 compounds; about 910 (0.23%) were called active. This list was built around the results that the source calls inconclusive (neither active nor inactive); the mix of calls is not that of the screen. Calls follow the shape of the dose curve; as a rule, active = well fitted inhibition curve with a large enough effect; inconclusive = small, poorly fitted or top-dose-only effect; inactive = no such curve, though single readings can be large or run the other way. Potencies beside an inconclusive call are fits to weak or partial responses and may not hold up.
% is scaled to controls: 0 for no effect and ±100 for the full control effect; potency is read from the fitted curve at half-maximal effect.
Also: nearly all actives have a fitted effect of over 60% in size.

By UniProt entry, the sequences of proteins in these tests, tags left out. Where a name states a change or a piece, a line headed by the entry shows the natural chain unless it says otherwise.
UniProt O94782: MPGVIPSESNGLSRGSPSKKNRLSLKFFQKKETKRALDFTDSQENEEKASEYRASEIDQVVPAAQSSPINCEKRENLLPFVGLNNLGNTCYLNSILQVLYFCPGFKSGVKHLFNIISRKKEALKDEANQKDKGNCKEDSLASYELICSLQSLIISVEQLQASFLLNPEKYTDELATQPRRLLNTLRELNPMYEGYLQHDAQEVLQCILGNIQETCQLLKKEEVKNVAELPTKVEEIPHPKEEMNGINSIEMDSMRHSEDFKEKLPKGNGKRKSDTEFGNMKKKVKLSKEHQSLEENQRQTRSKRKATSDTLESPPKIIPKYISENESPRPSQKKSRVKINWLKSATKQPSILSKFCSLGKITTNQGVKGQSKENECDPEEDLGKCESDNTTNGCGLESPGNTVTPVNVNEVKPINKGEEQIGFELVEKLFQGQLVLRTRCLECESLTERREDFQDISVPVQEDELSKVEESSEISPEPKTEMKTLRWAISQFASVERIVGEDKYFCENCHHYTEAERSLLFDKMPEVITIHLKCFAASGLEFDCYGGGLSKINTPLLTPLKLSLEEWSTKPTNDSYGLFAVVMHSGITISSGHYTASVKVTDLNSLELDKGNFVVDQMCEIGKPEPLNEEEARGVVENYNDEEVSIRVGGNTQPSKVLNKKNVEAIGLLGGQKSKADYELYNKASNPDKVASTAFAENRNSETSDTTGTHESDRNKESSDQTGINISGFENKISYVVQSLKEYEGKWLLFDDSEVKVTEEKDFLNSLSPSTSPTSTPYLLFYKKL

The compounds below were run against Ubiquitin carboxyl-terminal hydrolase 1 (Homo sapiens) (UniProt O94782) (assay: Inhibitors of USP1/UAF1: Primary Screen). Details: recombinant USP1/UAF1, Ub-Rhodamine cleavage fluorescence; activity change, negative = inhibition: at 57.1 µM (top of the series).
Outline: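 In this screen, compounds sit with the deubiquitinase complex (1nM) for 15 min at room temperature before Ub-Rho is added at 150nM final. Fluorescence rise is then followed for 6 reads every 60 seconds.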
For `Cc1cc(C)n(CC(O)Cn2c3ccccc3c3ccccc32)n1` (stereo not given), the Potency was inconclusive: 28.2 µM [inhibitor, partial curve].
In the case of `Cc1cccc(NC(=O)c2cc(S(=O)(=O)N3CCc4ccccc43)ccc2F)c1C`, the Potency is reported as inconclusive: 1.26 µM [inhibitor, partial curve].
`COc1ccc(C)cc1Nc1nc(N)c2ccccc2n1` was tested, and the “activity change, negative = inhibition” value was inactive: -16.9%.
With `CCN(CC)c1cc(C)c2cc(NC(=O)c3cccc(F)c3)ccc2n1` the Potency was inconclusive: 44.7 µM [inhibitor, partial curve, poor fit].
For `CC1CCN(C(=O)CCNC(=O)c2ccccc2)CC1`, the Potency was inconclusive: 7.94 µM [inhibitor, single point].
In the case of `CC(C)NC(=O)CSc1ccccc1C(=O)NNC(=O)Cn1ccc(C(F)(F)F)n1`, the Potency is reported as inconclusive: 0.251 µM [inhibitor, full curve, poor fit].
In the case of `COc1c(C)cc(C(=O)C2CCCN(Cc3c(C)n(C)n(-c4ccccc4)c3=O)C2)cc1C` (stereo not given), the Potency is reported as inconclusive: 44.7 µM [inhibitor, partial curve, poor fit].
With `CN1C(=O)Cc2cc(S(=O)(=O)Nc3ccc(Cl)cc3)ccc21` the Potency was inconclusive: 2.51 µM [inhibitor, full curve, poor fit].
`Oc1ccccc1/C=N/n1c2ccccc2c2ccccc21` was tested, and the “activity change, negative = inhibition” value was inactive: -23.3%.
With `Cc1ccc(C)c(N2CCN(C(=O)CCc3nc(-c4cccc(F)c4)no3)CC2)c1` the Potency was inconclusive: 39.8 µM [inhibitor, partial curve, poor fit].
For `COc1ccc(Cl)cc1NS(=O)(=O)c1cc(Br)cc2c1N(C(=O)C1CC1)CC2`, the Potency was inconclusive: 0.282 µM [inhibitor, full curve].
For `O=c1[nH][nH]c(=O)c2nc(Nc3ccccc3)ncc12`, the Potency was inconclusive: 20 µM [inhibitor, partial curve, poor fit].
`CCOc1ccc(N2C(=O)S/C(=C\c3ccc(O)c(OCC)c3)C2=O)cc1` was tested, and the Potency was inconclusive: 44.7 µM [inhibitor, partial curve, poor fit].
With `CCc1cccc(C)c1NC(=O)CC1Oc2ccc(C)cc2NC1=O` (stereo not given) the Potency was inconclusive: 0.251 µM [inhibitor, full curve, poor fit].
For `COC(=O)[C@H]1C[C@@H]1[C@H](NS(=O)(=O)c1ccccc1)c1ccccc1`, the Potency was inconclusive: 5.01 µM [inhibitor, partial curve].
`COCCN(CCOC)C(=S)Nc1ccccc1Cl` was tested, and the Potency was inconclusive: 70.8 µM [inhibitor, partial curve, poor fit].
In the case of `O=C(/C=C/c1ccc2c(c1)OCO2)Nc1c(C(=O)O)[nH]c2ccccc12`, the “activity change, negative = inhibition” value is reported as inactive: -8.68%.
With `COc1ccc(OC)c2[nH]c(C(=O)N/N=C/c3ccccc3O)cc12` the Potency was inconclusive: 39.8 µM [inhibitor, partial curve, poor fit].
With `COC(=O)c1cc2occc2n1Cc1nc(-c2ccccc2F)oc1C` the Potency was inconclusive: 0.1 µM [inhibitor, full curve, poor fit].
For `Cc1cccc(-c2noc(CN(C(=O)C(c3ccccc3)c3ccccc3)C(C)C)n2)c1`, the Potency was inconclusive: 0.251 µM [inhibitor, full curve, poor fit].
With `Cc1ccc(-n2sc3cc(F)ccc3c2=O)c(C)c1` the Potency was inconclusive: 4.47 µM [inhibitor, full curve, poor fit].
For `Cc1ccc(-n2cc[nH]c2=S)cc1C`, the Potency was inconclusive: 7.08 µM [inhibitor, single point].
For `Cc1cc(C)c2c(=O)[nH]n(C3CCOC(C)(C)C3)c2n1` (stereo not given), the Potency was inconclusive: 35.5 µM [inhibitor, single point].
For `CC1CN(C2=Nc3cccc4cccc2c34)CC(C)O1` (stereo not given), the Potency was inconclusive: 4.47 µM [inhibitor, single point].
In the case of `COc1ccc(NC(=O)c2csc3c2CCCCC3)cc1`, the Potency is reported as inconclusive: 316 µM [inhibitor, partial curve, poor fit].
In the case of `CCn1nc([N+](=O)[O-])c(C(C#N)c2nc3cc(C(F)(F)F)ccc3s2)c(Cl)c1=O` (stereo not given), the Potency is reported as inconclusive: 31.6 µM [inhibitor, single point].
With `COC(=O)[C@]1(Cc2ccccc2)N[C@H](CN(C)C(=O)c2ccc(C(C)(C)C)cc2)[C@@H]2C(=O)N(Cc3ccccc3)C(=O)[C@@H]21` the Potency was inconclusive: 56.2 µM [inhibitor, partial curve, poor fit].
With `CCOC(=O)c1cnc2ccc(C)cc2c1NCCO` the “activity change, negative = inhibition” value was inactive: -25.7%.
With `COc1cc(NC(=O)CN(c2cc(C)cc(C)c2)S(=O)(=O)c2c(C)noc2C)cc(OC)c1` the Potency was inconclusive: 2.51 µM [inhibitor, full curve, poor fit].
In the case of `O=C1C(=O)N(CCN2CCOCC2)C(c2ccccc2)/C1=C(\O)c1ccc2c(c1)OCCO2` (stereo not given), the “activity change, negative = inhibition” value is reported as inactive: -13%.
`COc1cccc(NC(=O)Nc2ccc(C(C)(C)C)cc2)c1` was tested, and the Potency was inconclusive: 44.7 µM [inhibitor, partial curve].
In the case of `CC1CC(C)CN(CC(O)COCc2ccccc2)C1` (stereo not given), the “activity change, negative = inhibition” value is reported as inactive: -6.24%.
In the case of `CCN(CC1COc2ccccc2O1)C(=O)CN1C(=O)NC(C)(c2ccccc2)C1=O` (stereo not given), the “activity change, negative = inhibition” value is reported as inactive: -12.4%.
For `Cc1cc(C)c(NC(=O)CSc2nc3ccccc3nc2N2CCCCC2)c(C)c1`, the Potency was inconclusive: 4.47 µM [inhibitor, full curve].
`COc1ccc(C)cc1NC(=O)N(Cc1ccc(C)o1)C1CCN(C(C)=O)CC1` was tested, and the “activity change, negative = inhibition” value was inactive: -10%.
With `COc1ccc(N2CCN(C3CCCCC3NS(=O)(=O)c3ccc(Cl)cc3)CC2)cc1` (stereo not given) the “activity change, negative = inhibition” value was inactive: -22.8%.
With `COc1ccc(-c2ccc(SCC(=O)NC3CCCC3)nn2)cc1` the Potency was inconclusive: 0.0891 µM [inhibitor, full curve, poor fit].
For `COC(=O)CCCC1=CC2=CC(=O)C(C)(OC(=O)c3cccs3)C(=O)C2=CN1Cc1ccccc1` (stereo not given), the Potency was inconclusive: 44.7 µM [inhibitor, partial curve, poor fit].
With `Cc1cc(NC(=O)CN2CCCCC2)no1` the Potency was inconclusive: 3.55 µM [inhibitor, partial curve].
In the case of `CC(C)(C)c1nc2c(s1)CCc1onc(-c3ccc(Br)cc3)c1-2`, the Potency is reported as inconclusive: 0.355 µM [inhibitor, full curve].
